Measured values from US12065512B2 (Igisu Co., Ltd., priority 2015, dated 2024).

Assay: peptide synthesis
Conditions: whole synthesis, UV 215 nm

In the case of “CFGRKMDRISSSSGLGC (cysteine pairing not given here)”, the “final HPLC purity” value is reported as 99.2%.

No end group written: not given here.
